## Results of single-concentration screens

The chains behind the UniProt entries cited, without tags or fusion partners. Residues count along the entry.
UniProt P9WNZ1, whole entry: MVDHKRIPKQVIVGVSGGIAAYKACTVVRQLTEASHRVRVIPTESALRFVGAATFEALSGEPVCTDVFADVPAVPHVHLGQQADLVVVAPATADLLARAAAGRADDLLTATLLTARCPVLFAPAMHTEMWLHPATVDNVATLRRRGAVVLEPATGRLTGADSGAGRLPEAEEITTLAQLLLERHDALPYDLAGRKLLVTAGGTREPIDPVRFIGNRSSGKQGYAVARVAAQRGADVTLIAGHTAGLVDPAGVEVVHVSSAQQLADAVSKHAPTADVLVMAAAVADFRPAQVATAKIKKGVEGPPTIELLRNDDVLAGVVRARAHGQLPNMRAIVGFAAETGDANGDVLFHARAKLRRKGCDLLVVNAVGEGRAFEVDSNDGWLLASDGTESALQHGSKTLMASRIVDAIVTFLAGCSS
UniProt I6X8D2, whole entry: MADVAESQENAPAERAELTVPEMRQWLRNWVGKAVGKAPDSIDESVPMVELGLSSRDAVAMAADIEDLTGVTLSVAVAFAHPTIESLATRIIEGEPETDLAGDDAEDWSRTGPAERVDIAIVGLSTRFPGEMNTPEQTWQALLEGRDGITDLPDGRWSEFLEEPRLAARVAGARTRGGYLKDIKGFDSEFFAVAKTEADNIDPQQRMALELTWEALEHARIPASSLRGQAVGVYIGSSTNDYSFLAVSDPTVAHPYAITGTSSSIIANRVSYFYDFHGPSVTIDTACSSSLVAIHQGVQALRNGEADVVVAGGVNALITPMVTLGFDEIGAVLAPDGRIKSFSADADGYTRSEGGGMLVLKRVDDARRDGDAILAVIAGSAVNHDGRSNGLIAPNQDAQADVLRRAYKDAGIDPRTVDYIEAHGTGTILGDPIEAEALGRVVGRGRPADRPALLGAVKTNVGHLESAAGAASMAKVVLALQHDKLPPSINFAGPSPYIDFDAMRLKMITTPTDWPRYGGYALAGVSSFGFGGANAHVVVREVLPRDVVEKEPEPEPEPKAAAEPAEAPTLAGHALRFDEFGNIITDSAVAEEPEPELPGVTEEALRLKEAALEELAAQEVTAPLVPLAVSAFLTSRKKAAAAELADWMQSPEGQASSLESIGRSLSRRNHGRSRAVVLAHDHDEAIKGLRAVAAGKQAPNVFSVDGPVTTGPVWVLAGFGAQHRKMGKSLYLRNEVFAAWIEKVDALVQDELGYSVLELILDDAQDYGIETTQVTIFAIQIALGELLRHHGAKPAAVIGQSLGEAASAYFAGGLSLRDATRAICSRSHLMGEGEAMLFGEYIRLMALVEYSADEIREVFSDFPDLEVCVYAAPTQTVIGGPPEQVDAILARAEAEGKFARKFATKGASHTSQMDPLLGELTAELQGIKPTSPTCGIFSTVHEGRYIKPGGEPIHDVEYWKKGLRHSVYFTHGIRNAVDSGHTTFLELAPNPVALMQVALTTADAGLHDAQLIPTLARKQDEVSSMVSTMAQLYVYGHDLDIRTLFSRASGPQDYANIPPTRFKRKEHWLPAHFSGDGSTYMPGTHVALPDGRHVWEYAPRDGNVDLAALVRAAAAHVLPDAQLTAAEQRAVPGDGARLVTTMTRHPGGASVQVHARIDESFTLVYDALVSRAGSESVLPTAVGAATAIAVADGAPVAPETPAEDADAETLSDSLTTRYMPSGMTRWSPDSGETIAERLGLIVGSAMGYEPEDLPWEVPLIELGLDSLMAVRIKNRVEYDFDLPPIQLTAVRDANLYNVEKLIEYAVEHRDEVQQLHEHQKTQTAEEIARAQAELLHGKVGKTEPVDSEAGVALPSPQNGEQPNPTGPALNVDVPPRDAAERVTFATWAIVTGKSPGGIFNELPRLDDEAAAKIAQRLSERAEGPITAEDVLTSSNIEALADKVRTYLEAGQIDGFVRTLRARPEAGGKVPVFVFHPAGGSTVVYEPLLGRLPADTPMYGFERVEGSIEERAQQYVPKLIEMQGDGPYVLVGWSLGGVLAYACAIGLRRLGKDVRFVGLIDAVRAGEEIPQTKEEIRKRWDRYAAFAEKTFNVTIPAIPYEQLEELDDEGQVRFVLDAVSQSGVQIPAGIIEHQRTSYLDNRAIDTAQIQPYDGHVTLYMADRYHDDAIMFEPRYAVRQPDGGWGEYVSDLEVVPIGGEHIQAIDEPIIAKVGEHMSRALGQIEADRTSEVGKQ
UniProt P9WFT3, whole entry: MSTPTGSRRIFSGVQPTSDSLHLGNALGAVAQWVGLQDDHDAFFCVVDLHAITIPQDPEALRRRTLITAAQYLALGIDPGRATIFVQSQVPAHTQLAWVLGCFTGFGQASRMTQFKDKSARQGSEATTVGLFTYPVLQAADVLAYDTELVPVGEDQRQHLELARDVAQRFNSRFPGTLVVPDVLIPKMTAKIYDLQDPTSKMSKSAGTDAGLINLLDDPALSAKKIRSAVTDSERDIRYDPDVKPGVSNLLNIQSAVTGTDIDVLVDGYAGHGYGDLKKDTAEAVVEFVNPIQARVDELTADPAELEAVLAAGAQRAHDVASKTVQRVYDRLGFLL
UniProt A4I591, 1-473: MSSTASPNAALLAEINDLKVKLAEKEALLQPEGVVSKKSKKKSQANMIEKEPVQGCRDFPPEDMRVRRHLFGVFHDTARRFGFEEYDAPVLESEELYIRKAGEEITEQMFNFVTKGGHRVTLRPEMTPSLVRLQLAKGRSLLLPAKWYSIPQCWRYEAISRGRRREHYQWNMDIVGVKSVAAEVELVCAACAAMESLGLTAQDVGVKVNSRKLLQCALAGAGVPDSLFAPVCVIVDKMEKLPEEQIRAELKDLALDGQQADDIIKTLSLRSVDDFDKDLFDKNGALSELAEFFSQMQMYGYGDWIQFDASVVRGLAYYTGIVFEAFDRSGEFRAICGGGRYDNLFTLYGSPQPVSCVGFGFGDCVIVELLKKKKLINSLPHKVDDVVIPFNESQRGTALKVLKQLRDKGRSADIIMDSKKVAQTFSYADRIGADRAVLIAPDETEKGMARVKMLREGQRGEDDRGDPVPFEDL

Source: ChEMBL document CHEMBL3988442, “University of Dundee, Small-Polar-MMV Screening Library” (2021).

A: 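Enzyme assay of CoaBC with a phosphate dye (Biomol Green) read at 650 nm. Target: Coenzyme A biosynthesis protein CoaBC, Mycobacterium tuberculosis (UniProt P9WNZ1). Concentration: 30 µM. Direction is inferred from only a few compounds that gave an IC50; most scored high, so higher reads as stronger inhibition. Most strong results did not repeat in a second test. Size under these conditions: about 67,000 compounds, about 40 of them at 50% or above in at least one test.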
B: 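Enzyme assay of the thioesterase domain of polyketide synthase 13; the read-out is not stated. Target: Polyketide synthase Pks13, Mycobacterium tuberculosis (UniProt I6X8D2). Tested at 30 µM. Higher reads as stronger inhibition (inferred from which compounds were picked for retests). Size under these conditions: about 67,000 compounds, about 300 of them at 50% or above in at least one test.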
C: 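Enzyme assay of tryptophanyl-tRNA synthetase; the read-out is not stated. Target: Tryptophan-tRNA ligase, Mycobacterium tuberculosis (UniProt P9WFT3). Concentration: 10 µM. Higher most likely means stronger inhibition; the record gives no direction and few retests gave an IC50. About 65,000 compounds were tested under these conditions; 0.098% (about 64) showed 50% or more at least once.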
D: 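Histidine-tRNA ligase, Leishmania infantum (UniProt A4I591). Enzyme assay of histidyl-tRNA synthetase; the read-out is not stated. Tested at 30 µM. Higher reads as stronger inhibition (inferred: compounds with an IC50 in retests scored well above the rest). The assay is labelled LdHisRS but filed under L. infantum. Size under these conditions: about 69,000 compounds, about 410 of them at 50% or above in at least one test.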

Each number is a percent effect as filed.
The controls that fix the scale are not given in the record; negative values are as filed.
This is an unselected part of the compounds tested.
A dash means the value is not listed here; it may have been measured.

| structure | A | B | C | D |
|---|---|---|---|---|
| `COc1cccc(C(=O)NS(=O)(=O)c2cccc(C#N)c2)c1OC` | 7.083 | -9.531 | -0.6803 | 15.38 |
| `Cc1ccc(N2CCCN(CC3CC3)C(C(C)C)C2)nn1` (configuration not stated) | 2.755 | -9.962 | 5.376 | 10.2 |
| `CCCS(=O)(=O)CCSc1cccc(C#N)c1` | -4.822 | 13.74 | 3.511 | 8.163 |
| `CC(C)c1nc(CC(=O)N2CCCC(n3cncn3)C2)cs1` (configuration not stated) | 9.585 | -12.03 | -0.6681 | 4.255 |
| `O=C(CSCC1CC1)N1CCCC(c2nccn2Cc2ccncc2)C1` (configuration not stated) | 9.283 | -5.659 | 0.5687 | 18.27 |
| `CS(=O)(=O)N1CC(c2nc[nH]n2)c2cc(C(=O)NC3CCCC3)ccc21` (configuration not stated) | 2.174 | -29.11 | -5.091 | 15.15 |
| `CO[C@H]1CC[C@H]2[C@H]1OCCN2Cc1ccc(F)cc1` | 0.8631 | -37.75 | 2.394 | 12.5 |
| `CCOC(=O)CNC(=O)N1CCC(OC)c2ccccc2N(C)C(=O)C1` (configuration not stated) | -2.663 | -6.868 | - | 18.37 |
| `c1cnn(CC2CN(CC3CCCC3)CCO2)c1` (configuration not stated) | 8.616 | -8.806 | -0.8772 | 13.51 |